# Assay results taken from publication PMC3708822.
# Target: T1, GST-SAP18 (UniProt O00422)
# T1 sequence: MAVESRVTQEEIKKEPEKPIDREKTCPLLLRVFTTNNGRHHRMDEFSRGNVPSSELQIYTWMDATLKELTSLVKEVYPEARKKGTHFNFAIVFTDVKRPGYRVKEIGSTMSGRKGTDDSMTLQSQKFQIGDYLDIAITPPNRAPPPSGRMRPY
# Assay: pull-down; 5 ug GST-tagged proteins on glutathione sepharose 4B beads incubated 1 hour at 4°C with normalized clarified bacterial lysates of 6His-IN in 20 mM HEPES-KOH pH 8.0, 5 mM DTT, 0.1% IGEPAL; washes with 200 mM NaCl, 0.5% IGEPAL; Western blot, densitometry relative to WT; only the target purified
row,Substance,binding
1,His6-tagged IN D202G (HIV-1),binds
2,His6-tagged IN K111E (HIV-1),binds
3,His6-tagged IN S147G (HIV-1),binds

# Results are given in words; binding and its absence hold for the method and conditions named. Binding seen in cells or lysates may run through a third protein. Binding can be weak; no strength is given. Sequences can lack the tags named with a protein.
